Experimental data: article PMC7914569
Results are given in words; binding and its absence hold for the method and conditions named. For part of these data: In cells and extracts the contact can be indirect. Some results given as binding are weak or reduced against the parent protein; the word gives no strength. Each block holds one substance with its values, some of them ahead of it.

Amino acid sequences for entries named in this document (tags omitted). Residues count along the entry.
UniProt P13473, residues 29-410: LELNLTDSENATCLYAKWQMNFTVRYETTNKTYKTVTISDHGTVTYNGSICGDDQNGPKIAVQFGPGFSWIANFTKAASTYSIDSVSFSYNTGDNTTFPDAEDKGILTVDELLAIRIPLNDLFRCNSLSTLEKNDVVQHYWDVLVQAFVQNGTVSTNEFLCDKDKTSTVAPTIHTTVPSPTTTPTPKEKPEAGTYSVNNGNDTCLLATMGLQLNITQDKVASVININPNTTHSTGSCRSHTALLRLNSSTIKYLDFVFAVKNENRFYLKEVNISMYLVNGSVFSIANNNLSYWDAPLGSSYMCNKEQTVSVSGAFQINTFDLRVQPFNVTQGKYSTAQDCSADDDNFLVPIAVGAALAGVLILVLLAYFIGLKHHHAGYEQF
UniProt P35869, residues 11-848: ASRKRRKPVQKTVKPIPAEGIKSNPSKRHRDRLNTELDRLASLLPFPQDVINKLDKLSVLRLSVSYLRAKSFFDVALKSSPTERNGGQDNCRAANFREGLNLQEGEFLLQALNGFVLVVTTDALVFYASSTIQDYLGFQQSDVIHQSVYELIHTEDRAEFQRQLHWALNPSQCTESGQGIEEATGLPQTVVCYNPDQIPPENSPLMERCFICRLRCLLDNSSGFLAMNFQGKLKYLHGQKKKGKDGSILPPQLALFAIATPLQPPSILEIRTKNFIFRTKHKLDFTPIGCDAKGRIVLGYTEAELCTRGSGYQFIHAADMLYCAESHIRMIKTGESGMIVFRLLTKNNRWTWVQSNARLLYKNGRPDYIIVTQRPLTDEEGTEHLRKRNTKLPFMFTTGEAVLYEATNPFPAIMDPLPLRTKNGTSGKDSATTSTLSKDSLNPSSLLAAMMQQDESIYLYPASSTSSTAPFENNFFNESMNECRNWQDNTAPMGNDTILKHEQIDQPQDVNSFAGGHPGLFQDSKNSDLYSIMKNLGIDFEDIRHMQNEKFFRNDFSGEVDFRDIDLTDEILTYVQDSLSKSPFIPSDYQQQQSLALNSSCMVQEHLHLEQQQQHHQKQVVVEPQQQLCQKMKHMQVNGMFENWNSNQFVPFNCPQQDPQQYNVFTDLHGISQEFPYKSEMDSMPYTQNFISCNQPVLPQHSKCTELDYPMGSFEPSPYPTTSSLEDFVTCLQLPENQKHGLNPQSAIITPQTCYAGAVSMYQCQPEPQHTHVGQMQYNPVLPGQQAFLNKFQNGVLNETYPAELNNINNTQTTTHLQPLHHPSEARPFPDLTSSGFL
UniProt P11142: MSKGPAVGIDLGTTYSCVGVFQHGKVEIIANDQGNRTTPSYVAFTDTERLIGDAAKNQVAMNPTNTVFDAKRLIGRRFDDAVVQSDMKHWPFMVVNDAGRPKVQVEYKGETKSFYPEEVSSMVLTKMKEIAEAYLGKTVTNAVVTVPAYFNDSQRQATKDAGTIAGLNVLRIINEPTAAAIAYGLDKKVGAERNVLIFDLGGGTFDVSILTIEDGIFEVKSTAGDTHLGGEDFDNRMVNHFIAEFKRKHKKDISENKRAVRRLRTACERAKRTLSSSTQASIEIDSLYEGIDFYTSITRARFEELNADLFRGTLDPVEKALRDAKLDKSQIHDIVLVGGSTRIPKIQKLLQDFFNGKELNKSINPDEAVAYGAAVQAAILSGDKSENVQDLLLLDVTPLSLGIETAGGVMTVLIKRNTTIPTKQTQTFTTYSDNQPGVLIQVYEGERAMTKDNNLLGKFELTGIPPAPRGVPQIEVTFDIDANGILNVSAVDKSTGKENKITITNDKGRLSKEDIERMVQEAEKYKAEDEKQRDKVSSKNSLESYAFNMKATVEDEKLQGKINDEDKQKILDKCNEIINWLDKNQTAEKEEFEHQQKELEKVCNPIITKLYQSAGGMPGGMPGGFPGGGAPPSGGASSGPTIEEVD
UniProt P27540: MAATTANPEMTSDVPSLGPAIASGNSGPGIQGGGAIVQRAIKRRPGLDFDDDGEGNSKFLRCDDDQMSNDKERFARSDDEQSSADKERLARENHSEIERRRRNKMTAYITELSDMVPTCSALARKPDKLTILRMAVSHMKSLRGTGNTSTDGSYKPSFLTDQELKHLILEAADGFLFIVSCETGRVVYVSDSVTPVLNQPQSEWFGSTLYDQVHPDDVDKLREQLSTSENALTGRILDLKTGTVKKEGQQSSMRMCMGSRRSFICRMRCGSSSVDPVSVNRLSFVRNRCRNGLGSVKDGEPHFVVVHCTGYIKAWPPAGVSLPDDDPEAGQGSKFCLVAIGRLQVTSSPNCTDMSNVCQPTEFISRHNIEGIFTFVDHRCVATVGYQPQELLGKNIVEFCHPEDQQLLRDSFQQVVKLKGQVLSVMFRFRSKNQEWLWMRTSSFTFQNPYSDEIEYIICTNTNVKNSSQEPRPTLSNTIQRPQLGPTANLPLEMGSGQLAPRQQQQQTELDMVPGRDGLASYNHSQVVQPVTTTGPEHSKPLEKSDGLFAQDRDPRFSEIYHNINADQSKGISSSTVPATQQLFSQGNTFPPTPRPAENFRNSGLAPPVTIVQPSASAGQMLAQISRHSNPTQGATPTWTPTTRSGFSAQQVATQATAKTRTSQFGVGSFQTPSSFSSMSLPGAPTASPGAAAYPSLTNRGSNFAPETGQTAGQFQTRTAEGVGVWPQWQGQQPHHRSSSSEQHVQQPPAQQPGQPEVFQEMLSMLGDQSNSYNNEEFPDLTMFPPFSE
UniProt P04406: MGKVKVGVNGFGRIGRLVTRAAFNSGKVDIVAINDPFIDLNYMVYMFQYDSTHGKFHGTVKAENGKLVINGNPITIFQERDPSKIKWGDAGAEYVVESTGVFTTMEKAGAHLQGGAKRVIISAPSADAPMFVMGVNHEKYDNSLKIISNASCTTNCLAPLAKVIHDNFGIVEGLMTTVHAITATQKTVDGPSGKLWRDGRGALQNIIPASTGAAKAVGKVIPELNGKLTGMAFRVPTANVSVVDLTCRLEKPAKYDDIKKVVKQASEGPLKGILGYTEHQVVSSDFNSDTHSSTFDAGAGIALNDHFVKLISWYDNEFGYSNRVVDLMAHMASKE

Legend:
[1] = biological target: lysosomal associated membrane protein 2A (human (endogenous in MDA-MB-468)) (UniProt P13473); assay: proximity ligation; Duolink Reagents Red; MDA-MB-468 cells fixed and permeabilized with cold methanol; cells treated with 10 μM Q18 (8 h), 10 μM 6-AN (24 h) or HBSS (48 h)
[2] = biological target: lysosomal associated membrane protein 2A (human (endogenous in MDA-MB-468)) (UniProt P13473); assay: condition: only cells treated with 1 μg/mL of GA for 24 h; proximity ligation; Duolink Reagents Red; MDA-MB-468 cells fixed and permeabilized with cold methanol; cells treated with 1 μg/mL of GA for 24 h
[3] = biological target: lysosomal associated membrane protein 2A (human (endogenous in MDA-MB-468)) (UniProt P13473); assay: co-IP; 2 mg whole cell lysates of MDA-MB-468 cells treated with 10 μM Q18 (0, 4, 8 h) or DMSO or 10 μM 6-AN (24 h); anti-AHR SA-210 or anti-LAMP2 antibody on protein G magnetic beads, overnight at 4 °C; washed with HEDG containing 150 mM NaCl and 0.05–0.1% Tween-20; Western blot
[4] = biological target: aryl hydrocarbon receptor (human (endogenous in MDA-MB-468)) (UniProt P35869); assay: as above
[5] = biological target: Pichia-expressed human AHR (human) (UniProt P35869); assay: native gel or EMSA; AHR (2 μL), ARNT (0.5 μL) and p23 (1 μL) in HEDG with 10 μM βNF, then dIdC (3 μg) and DRE-IRD700 (0.5 pmol); AHR/ARNT/DRE gel shift complex; both purified

binding [1]: binds
binding [2]: no binding
binding [3]: binds
Substance: aryl hydrocarbon receptor (from UniProt P35869 11-848)

binding [4]: binds
Substance: heat shock cognate protein 70 (from UniProt P11142 1-646)

binding [5]: binds
Substance: Pichia-expressed human aryl hydrocarbon receptor nuclear translocator (from UniProt P27540 1-789)

binding [1]: binds
Substance: GAPDH (from UniProt P04406 1-335)
